Measurements: US6897295 (MOCHIDA PHARMACEUTICAL, dated 2005)
No constants are given. Whether binding was seen depends on the method and setting. Some entries that bind do so weakly or less than the wild type.

Chains of the proteins cited; added tags and fusions are not shown. Lines headed by an entry give the natural chain unless they say otherwise; changes in a name come on top.
UniProt P48023: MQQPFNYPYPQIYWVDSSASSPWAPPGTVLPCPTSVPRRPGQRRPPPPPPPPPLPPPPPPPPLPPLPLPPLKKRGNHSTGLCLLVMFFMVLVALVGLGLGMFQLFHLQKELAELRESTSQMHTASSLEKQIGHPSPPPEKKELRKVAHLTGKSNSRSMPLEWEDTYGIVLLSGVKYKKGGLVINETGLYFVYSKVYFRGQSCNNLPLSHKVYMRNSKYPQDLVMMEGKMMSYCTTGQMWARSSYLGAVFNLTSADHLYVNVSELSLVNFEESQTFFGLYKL

Target: T1, human Fas antigen on WC8A / WC8 cells (human, UniProt P25445 26-335)
T1 construct: whole, on cells
T1 sequence (looked up): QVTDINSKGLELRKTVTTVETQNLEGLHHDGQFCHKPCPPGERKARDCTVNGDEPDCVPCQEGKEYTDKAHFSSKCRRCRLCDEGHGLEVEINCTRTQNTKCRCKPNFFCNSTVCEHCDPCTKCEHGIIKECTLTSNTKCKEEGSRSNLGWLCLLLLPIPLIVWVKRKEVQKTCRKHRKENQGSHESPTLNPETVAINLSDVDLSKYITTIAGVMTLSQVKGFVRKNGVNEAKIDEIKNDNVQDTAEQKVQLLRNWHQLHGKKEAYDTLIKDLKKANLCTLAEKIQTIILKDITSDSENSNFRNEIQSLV
Test: concluded from cytotoxicity of the culture supernatant on cells expressing human Fas antigen

## human Fas ligand present in the culture supernatant of transformant COS-1/pEX-hFL1 (from UniProt P48023 130-281)
  binding: binds
